# From the supplement of paper PMC6411743
# ± gives the standard deviation of the averaged measurements. This is one part of the list.
# Biological target: T1, B8ZZ50 and related entries (UniProt O60573)
# T1 sequence (whole entry): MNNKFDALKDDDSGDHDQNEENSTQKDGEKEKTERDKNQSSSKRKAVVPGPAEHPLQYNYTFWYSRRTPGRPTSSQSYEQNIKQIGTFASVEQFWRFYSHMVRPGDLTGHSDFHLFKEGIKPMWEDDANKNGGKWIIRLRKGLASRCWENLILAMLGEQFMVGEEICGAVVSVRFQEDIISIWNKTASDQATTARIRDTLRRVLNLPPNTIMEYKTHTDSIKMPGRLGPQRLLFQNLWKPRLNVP
# Experiment: NP40-soluble protein abundance relative to vehicle (solubility fold change) (ratio); higher = more soluble protein in presence of GTP
# Procedure: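 Solubility proteome profiling in Jurkat crude lysate. Lysate was treated with Mg-GTP (0.1-10 mM) for 10 min at room temperature and 3 min at 37 °C, then solubilised with 0.8% NP40 and benzonase, followed by ultracentrifugation. Proteins were quantified by TMT10 LC-MS/MS; the value is the NP40-soluble abundance relative to the NP40-processed vehicle, from 3 independent experiments.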
smiles,measurement,setting,value
Nc1nc2c(ncn2[C@@H]2O[C@H](COP(=O)(O)OP(=O)(O)OP(=O)(O)O)[C@@H](O)[C@H]2O)c(=O)[nH]1 [guanosine triphosphate],NP40-soluble protein abundance,concentration: 0.1mM,1.02 ± 0.075
same,NP40-soluble protein abundance,concentration: 0.5mM,1.05 ± 0.018
same,NP40-soluble protein abundance,concentration: 1mM,1.04 ± 0.12
same,NP40-soluble protein abundance,concentration: 2mM,1.12 ± 0.096
same,NP40-soluble protein abundance,concentration: 4mM,1.15 ± 0.072
same,NP40-soluble protein abundance,concentration: 6mM,1.2 ± 0.15
same,NP40-soluble protein abundance,concentration: 8mM,1.13 ± 0.08
same,NP40-soluble protein abundance,concentration: 10mM,1.21 ± 0.14
